The other results are listed elsewhere or left out.

Sequences of proteins named here, by UniProt entry; tags and fusion partners are left off. A change or cut given only in a name is not applied to a line headed by its entry.
UniProt Q6P587: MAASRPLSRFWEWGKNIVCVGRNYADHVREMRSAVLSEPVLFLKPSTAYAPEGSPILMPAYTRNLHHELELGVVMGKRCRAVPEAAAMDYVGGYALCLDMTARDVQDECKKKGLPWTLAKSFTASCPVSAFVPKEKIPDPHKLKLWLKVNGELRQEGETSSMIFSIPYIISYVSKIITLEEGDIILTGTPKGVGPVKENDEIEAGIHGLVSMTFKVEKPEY
UniProt Q9NUQ9: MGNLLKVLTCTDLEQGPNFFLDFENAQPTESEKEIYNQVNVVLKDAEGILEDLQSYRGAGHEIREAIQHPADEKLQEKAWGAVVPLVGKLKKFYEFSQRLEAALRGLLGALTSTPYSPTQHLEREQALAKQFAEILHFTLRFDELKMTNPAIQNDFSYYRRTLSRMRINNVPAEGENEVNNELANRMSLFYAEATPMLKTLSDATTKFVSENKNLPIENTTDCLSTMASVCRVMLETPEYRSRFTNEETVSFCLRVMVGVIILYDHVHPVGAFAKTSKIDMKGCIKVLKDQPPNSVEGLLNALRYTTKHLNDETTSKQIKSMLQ
UniProt Q01469, whole entry, looked up: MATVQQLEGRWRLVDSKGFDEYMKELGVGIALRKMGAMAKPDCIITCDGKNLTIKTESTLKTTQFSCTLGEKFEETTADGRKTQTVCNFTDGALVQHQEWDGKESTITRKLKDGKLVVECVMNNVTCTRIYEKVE
UniProt Q9H4H8: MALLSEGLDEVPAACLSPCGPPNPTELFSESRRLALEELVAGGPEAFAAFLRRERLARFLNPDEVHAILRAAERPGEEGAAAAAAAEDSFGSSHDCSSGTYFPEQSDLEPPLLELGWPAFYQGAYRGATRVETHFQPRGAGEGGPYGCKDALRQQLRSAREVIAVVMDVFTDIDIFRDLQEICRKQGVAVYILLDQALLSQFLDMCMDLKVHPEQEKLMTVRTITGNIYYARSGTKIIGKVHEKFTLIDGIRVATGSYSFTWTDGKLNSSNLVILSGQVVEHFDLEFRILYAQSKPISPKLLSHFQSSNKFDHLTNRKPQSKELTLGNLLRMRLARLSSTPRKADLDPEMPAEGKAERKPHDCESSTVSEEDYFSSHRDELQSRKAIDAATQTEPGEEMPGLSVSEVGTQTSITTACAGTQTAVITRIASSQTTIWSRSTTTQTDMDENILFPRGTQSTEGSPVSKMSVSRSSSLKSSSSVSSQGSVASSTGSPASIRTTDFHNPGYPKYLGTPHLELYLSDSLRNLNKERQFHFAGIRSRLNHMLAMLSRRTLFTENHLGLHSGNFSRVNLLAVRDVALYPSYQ
UniProt Q9UBQ6: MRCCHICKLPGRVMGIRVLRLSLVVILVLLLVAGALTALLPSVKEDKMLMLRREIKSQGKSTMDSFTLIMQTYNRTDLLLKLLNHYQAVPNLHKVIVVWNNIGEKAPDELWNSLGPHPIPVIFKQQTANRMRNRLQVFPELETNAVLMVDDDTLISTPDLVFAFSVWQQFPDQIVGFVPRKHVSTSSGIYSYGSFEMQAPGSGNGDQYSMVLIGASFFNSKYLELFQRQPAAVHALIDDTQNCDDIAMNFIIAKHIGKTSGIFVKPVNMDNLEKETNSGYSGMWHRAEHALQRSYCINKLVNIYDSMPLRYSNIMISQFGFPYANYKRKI
UniProt Q9NWS6: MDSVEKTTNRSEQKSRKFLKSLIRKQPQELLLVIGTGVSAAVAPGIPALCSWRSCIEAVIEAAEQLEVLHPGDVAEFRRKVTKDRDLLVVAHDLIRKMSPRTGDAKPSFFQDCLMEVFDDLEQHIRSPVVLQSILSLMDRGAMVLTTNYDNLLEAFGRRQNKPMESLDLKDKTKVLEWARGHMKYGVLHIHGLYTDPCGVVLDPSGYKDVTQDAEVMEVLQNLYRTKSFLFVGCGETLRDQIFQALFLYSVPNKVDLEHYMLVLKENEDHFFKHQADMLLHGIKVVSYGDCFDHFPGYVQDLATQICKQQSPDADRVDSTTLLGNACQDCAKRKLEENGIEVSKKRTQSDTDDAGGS
UniProt P38117: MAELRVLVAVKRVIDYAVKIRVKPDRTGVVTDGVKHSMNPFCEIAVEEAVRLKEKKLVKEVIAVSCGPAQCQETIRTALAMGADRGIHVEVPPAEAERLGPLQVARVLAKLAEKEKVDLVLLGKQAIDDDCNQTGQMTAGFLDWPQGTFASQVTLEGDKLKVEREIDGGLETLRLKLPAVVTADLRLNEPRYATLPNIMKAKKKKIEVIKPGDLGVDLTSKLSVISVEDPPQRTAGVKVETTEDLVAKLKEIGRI
UniProt Q14320: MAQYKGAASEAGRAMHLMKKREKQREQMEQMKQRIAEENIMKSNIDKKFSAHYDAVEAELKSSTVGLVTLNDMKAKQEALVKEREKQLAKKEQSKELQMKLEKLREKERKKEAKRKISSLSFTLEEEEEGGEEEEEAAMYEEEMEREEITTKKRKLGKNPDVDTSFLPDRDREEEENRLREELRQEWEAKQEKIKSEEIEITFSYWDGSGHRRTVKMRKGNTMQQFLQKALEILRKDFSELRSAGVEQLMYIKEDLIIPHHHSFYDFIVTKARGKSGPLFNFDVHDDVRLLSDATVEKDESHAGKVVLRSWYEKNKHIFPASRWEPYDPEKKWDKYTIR
UniProt Q86X53: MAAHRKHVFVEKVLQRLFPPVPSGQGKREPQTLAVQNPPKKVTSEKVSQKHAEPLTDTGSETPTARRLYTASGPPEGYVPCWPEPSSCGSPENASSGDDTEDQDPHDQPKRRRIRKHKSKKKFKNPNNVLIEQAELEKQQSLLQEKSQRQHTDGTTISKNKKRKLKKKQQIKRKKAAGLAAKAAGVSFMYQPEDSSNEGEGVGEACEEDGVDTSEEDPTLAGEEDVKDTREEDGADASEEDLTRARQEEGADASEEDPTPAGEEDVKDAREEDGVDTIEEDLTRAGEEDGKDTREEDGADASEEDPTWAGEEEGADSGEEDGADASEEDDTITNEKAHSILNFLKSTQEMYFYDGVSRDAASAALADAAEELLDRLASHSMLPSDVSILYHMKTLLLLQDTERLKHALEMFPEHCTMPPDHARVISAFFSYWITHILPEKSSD
UniProt Q96GK7: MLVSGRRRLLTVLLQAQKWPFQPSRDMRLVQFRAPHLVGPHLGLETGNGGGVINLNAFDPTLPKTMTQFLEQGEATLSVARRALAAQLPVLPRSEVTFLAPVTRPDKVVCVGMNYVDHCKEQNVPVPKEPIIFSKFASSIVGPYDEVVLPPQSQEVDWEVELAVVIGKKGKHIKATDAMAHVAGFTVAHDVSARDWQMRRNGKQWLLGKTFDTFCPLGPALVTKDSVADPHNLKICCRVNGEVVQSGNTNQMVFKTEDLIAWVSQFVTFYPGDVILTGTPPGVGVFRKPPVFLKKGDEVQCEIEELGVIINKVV
UniProt Q96KR6: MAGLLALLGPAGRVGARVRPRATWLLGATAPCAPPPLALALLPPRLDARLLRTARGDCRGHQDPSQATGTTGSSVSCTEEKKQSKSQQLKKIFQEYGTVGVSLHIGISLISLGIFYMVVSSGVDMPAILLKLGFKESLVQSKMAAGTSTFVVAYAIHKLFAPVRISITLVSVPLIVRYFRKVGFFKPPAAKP
UniProt Q5RKV6, whole entry, looked up: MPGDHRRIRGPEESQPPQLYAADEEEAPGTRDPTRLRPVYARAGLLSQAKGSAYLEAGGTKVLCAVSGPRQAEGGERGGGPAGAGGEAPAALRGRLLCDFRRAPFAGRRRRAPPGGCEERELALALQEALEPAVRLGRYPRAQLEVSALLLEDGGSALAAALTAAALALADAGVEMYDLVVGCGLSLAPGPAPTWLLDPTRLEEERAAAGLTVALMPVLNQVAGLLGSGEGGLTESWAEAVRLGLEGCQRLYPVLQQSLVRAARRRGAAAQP
UniProt Q9UPT5: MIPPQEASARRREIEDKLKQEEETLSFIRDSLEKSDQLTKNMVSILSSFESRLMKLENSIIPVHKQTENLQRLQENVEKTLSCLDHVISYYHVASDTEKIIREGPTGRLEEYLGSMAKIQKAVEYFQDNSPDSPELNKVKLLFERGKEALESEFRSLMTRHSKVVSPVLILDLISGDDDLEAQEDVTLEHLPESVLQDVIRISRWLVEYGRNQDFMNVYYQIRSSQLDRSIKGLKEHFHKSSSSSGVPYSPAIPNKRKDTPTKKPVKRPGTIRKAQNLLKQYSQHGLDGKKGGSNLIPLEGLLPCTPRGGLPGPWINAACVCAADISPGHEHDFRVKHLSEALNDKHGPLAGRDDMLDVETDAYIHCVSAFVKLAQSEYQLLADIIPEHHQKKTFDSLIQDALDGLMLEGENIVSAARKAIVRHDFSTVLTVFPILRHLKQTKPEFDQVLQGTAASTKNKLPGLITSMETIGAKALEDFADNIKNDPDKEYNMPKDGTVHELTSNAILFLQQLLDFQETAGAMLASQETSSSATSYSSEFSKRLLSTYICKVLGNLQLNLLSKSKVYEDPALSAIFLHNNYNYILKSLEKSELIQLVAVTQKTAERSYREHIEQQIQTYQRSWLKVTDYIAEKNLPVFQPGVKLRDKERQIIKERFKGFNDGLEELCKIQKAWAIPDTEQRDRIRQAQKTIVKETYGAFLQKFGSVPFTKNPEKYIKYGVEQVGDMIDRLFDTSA
UniProt Q9HBU6: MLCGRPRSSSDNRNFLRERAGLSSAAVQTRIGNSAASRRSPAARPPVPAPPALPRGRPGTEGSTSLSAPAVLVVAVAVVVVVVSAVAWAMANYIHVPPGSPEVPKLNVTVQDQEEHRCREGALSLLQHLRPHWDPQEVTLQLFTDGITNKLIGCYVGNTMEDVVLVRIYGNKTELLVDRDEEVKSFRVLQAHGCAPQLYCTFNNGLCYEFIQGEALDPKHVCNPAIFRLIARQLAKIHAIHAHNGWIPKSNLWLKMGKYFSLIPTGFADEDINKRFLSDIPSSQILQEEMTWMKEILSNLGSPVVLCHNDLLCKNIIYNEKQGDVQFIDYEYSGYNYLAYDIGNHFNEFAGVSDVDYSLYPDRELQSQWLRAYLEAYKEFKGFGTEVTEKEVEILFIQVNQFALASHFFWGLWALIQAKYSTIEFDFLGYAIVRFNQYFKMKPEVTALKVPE
UniProt Q86UY5: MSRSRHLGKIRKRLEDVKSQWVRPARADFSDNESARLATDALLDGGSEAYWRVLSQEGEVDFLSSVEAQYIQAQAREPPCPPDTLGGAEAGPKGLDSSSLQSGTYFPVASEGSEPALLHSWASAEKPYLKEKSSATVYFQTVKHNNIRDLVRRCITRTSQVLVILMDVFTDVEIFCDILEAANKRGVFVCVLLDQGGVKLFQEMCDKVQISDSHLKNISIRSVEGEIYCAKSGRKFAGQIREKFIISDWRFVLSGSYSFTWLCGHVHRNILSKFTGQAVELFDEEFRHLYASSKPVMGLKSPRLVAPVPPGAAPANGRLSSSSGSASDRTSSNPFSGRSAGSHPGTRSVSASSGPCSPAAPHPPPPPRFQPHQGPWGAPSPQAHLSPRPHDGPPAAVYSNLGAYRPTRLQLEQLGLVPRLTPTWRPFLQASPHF
UniProt Q9Y5Q0: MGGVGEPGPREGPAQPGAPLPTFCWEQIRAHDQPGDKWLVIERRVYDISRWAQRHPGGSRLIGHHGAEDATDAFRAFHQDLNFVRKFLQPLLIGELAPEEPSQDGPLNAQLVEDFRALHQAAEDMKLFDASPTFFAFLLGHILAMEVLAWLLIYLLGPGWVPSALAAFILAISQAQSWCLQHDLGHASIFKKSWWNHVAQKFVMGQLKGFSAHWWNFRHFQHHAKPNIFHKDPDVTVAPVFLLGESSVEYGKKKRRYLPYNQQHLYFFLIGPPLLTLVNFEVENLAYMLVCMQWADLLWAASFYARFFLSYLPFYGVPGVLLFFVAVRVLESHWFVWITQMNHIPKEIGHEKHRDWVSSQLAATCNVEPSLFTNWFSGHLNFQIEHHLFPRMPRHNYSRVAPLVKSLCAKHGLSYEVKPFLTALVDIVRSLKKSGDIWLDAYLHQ
UniProt Q9NQT4, whole entry, looked up: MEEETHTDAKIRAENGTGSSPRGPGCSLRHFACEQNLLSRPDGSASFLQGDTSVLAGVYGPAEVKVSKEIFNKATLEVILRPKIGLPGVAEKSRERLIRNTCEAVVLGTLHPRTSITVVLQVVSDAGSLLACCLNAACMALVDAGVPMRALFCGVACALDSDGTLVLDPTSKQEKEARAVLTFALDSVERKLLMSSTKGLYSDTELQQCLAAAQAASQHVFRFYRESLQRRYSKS
UniProt Q9NSI2: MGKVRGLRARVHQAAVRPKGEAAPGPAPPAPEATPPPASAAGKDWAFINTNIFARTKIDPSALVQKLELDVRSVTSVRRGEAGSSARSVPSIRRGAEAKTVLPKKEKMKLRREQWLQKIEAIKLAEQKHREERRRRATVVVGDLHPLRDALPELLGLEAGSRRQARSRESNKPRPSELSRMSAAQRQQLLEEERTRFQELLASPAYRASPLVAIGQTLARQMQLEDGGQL

Compound in one assay: CNc1nc(-c2ccc3c(N)n[nH]c3c2)cc(N2C[C@@H](C(=O)NC3CCCCC3)CC[C@H]2C)n1
The assay can be described thus: log2 fold change, soluble protein after heating vs DMSO (PISA); higher = thermal stabilisation; K562 lysate, 10 uM; active = over 0.2 and 3.5 SD of the protein, either way, in both replicates (recomputed). The essentials: (§1)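 To prepare the extract, K562 pellets were dounce-homogenised in PBS pH 7.4 with 1 mM MgCl2, giving crude material at 1 mg/mL protein. This was treated with 10 μM compound for 30 min, then heated in aliquots for 3 min over 48°C-58°C before pooling and addition of NP-40 to 0.5% at 4°C. Centrifugation at 21,000xg for 90 min left soluble protein in the supernatant, which TMTpro 16plex LC-MS/MS quantified with equalised channel sums. Results are log-two fold changes in thermal stability compared with solvent controls, from duplicates.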
As to FAHD1 (UniProt Q6P587), the log2 fold change is inactive: 0.165.

As to FAM49B (UniProt Q9NUQ9), the log2 fold change is inactive: 0.011.

For the target FABP5 (UniProt Q01469), the log2 fold change was inactive: -0.11.

Regarding FAM83D (UniProt Q9H4H8), the log2 fold change is inactive: 0.022.

For EXTL2 (UniProt Q9UBQ6), the log2 fold change was inactive: 0.104.

In the case of FAM118A (UniProt Q9NWS6), the log2 fold change is inactive: 0.002.

As to ESYT2 (UniProt H7BXI1), the log2 fold change is inactive: -0.072.

As to ETFB (UniProt P38117), the log2 fold change is inactive: 0.026.

On to ERP29 (UniProt P30040), for which the log2 fold change is inactive: -0.024.

For the target FAM50A (UniProt Q14320), the log2 fold change was inactive: 0.001.

Turning to ERICH1 (UniProt Q86X53), the log2 fold change is inactive: 0.012.

Take FAHD2A (UniProt Q96GK7): the log2 fold change was inactive: 0.018.

As for FAM210B (UniProt Q96KR6), the log2 fold change was inactive: 0.092.

Take ETF1 (UniProt P62495): the log2 fold change is inactive: -0.014.

As for EXOSC6 (UniProt Q5RKV6), the log2 fold change is inactive: 0.049.

EXOC7 (UniProt Q9UPT5): the log2 fold change is inactive: 0.06.

Compound in the next assay: COC(=O)N[C@@H](C)CNc1nccc(-c2cn(C(C)C)nc2-c2cc(Cl)cc(NS(C)(=O)=O)c2F)n1 [encorafenib]
Described as above. The essentials:
as §1
For the target ETNK1 (UniProt Q9HBU6), the log2 fold change is inactive: 0.009.

Regarding FAM83A (UniProt Q86UY5), the log2 fold change is inactive: 0.02.

As to FADS3 (UniProt Q9Y5Q0), the log2 fold change was inactive: 0.097.

As to EXOC2 (UniProt Q96KP1), the log2 fold change was inactive: 0.031.

As to FAM120A isoform 6 (UniProt Q9NZB2), the log2 fold change was inactive: 0.001.

As for EXOSC5 (UniProt Q9NQT4), the log2 fold change was inactive: 0.01.

Regarding FAM162A (UniProt Q96A26), the log2 fold change was inactive: -0.022.

For EZH2 isoform 2 (UniProt Q15910), the log2 fold change was inactive: -0.041.

EXOC4 (UniProt Q96A65): the log2 fold change was inactive: 0.022.

For the target EXOSC4 (UniProt Q9NPD3), the log2 fold change is inactive: 0.031.

Consider ESS2 (UniProt Q96DF8), for which the log2 fold change is inactive: 0.054.

In the case of EXOC6 (UniProt Q8TAG9), the log2 fold change is inactive: 0.015.

For the target FADS1, A0A0A0MR51, the log2 fold change is inactive: -0.055.

For F5 (UniProt P12259), the log2 fold change was inactive: -0.03.

In the case of FAM207A (UniProt Q9NSI2), the log2 fold change is inactive: -0.002.

Consider ESD (UniProt P10768), for which the log2 fold change is inactive: -0.06.

Regarding FAM122A (UniProt Q96E09), the log2 fold change was inactive: 0.037.

As for FAM114A2 (UniProt Q9NRY5), the log2 fold change was inactive: 0.219.

Take FAM136A (UniProt Q96C01): the log2 fold change is inactive: -0.021.

In the case of EXOC3 (UniProt O60645), the log2 fold change is inactive: 0.001.

As to EYA3 (UniProt Q99504), the log2 fold change was inactive: -0.077.

Consider ERVK3-1, A0A0U1RQV1, for which the log2 fold change was inactive: -0.01.

ERLEC1 (UniProt Q96DZ1): the log2 fold change is inactive: 0.054.

With ESYT1 isoform 2 (UniProt Q9BSJ8), the log2 fold change was inactive: 0.023.

On to FAHD1 (UniProt Q6P587), for which the log2 fold change was inactive: -0.002.

For the target FAM49B (UniProt Q9NUQ9), the log2 fold change was inactive: 0.029.

FABP5 (UniProt Q01469): the log2 fold change is inactive: -0.06.

Regarding FAM83D (UniProt Q9H4H8), the log2 fold change is inactive: 0.026.

With EXTL2 (UniProt Q9UBQ6), the log2 fold change was inactive: 0.168.

In the case of FAM118A (UniProt Q9NWS6), the log2 fold change was inactive: -0.017.

With ESYT2 (UniProt H7BXI1), the log2 fold change is inactive: 0.053.

ETFB (UniProt P38117): the log2 fold change is inactive: -0.05.

Take ERP29 (UniProt P30040): the log2 fold change is inactive: -0.019.

On to FAM50A (UniProt Q14320), for which the log2 fold change was inactive: 0.024.

As for ERICH1 (UniProt Q86X53), the log2 fold change is inactive: -0.07.

As for FAHD2A (UniProt Q96GK7), the log2 fold change is inactive: -0.03.

Consider FAM210B (UniProt Q96KR6), for which the log2 fold change was inactive: -0.017.

Turning to ETF1 (UniProt P62495), the log2 fold change was inactive: -0.023.

Take EXOSC6 (UniProt Q5RKV6): the log2 fold change is inactive: -0.014.

On to EXOC7 (UniProt Q9UPT5), for which the log2 fold change is inactive: 0.005.

Compound in a further assay: COC(=O)[C@H](CCSC)NC(=O)C1=C(C=C(C=C1)NC[C@H](CS)N)C2=CC=CC=C2
The assay is described as above. In a few lines:
as §1
For ETNK1 (UniProt Q9HBU6), the log2 fold change was inactive: -0.022.

Take FAM83A (UniProt Q86UY5): the log2 fold change is inactive: 0.07.

For the target FADS3 (UniProt Q9Y5Q0), the log2 fold change is inactive: 0.096.

As to EXOC2 (UniProt Q96KP1), the log2 fold change was inactive: 0.027.

Consider FAM120A isoform 6 (UniProt Q9NZB2), for which the log2 fold change was inactive: -0.18.

On to EXOSC5 (UniProt Q9NQT4), for which the log2 fold change was inactive: -0.017.

As for FAM162A (UniProt Q96A26), the log2 fold change was inactive: -0.01.

With EZH2 isoform 2 (UniProt Q15910), the log2 fold change was inactive: 0.055.

Turning to EXOC4 (UniProt Q96A65), the log2 fold change was inactive: 0.078.

As to EXOSC4 (UniProt Q9NPD3), the log2 fold change is inactive: -0.06.

In the case of ESS2 (UniProt Q96DF8), the log2 fold change is inactive: 0.004.

In the case of EXOC6 (UniProt Q8TAG9), the log2 fold change was inactive: 0.039.

For FADS1, A0A0A0MR51, the log2 fold change was inactive: 0.03.

Turning to F5 (UniProt P12259), the log2 fold change is inactive: 0.02.

As to FAM207A (UniProt Q9NSI2), the log2 fold change was inactive: -0.033.

For the target ESD (UniProt P10768), the log2 fold change was inactive: -0.174.

Consider FAM122A (UniProt Q96E09), for which the log2 fold change was inactive: -0.02.

For the target FAM114A2 (UniProt Q9NRY5), the log2 fold change is inactive: 0.027.

As for FAM136A (UniProt Q96C01), the log2 fold change is inactive: -0.147.

As for EXOC3 (UniProt O60645), the log2 fold change is inactive: 0.07.

EYA3 (UniProt Q99504): the log2 fold change is inactive: 0.135.

ERVK3-1, A0A0U1RQV1: the log2 fold change is inactive: -0.036.

As for ERLEC1 (UniProt Q96DZ1), the log2 fold change was inactive: -0.019.

Turning to ESYT1 isoform 2 (UniProt Q9BSJ8), the log2 fold change was inactive: 0.035.

As to FAHD1 (UniProt Q6P587), the log2 fold change is inactive: 0.043.

In the case of FAM49B (UniProt Q9NUQ9), the log2 fold change is inactive: -0.06.

As to FABP5 (UniProt Q01469), the log2 fold change was inactive: -0.015.

Take FAM83D (UniProt Q9H4H8): the log2 fold change was inactive: 0.017.

Regarding EXTL2 (UniProt Q9UBQ6), the log2 fold change was inactive: -0.048.

In the case of FAM118A (UniProt Q9NWS6), the log2 fold change was inactive: 0.002.

On to ESYT2 (UniProt H7BXI1), for which the log2 fold change was inactive: -0.1.

In the case of ETFB (UniProt P38117), the log2 fold change was inactive: -0.03.

Consider ERP29 (UniProt P30040), for which the log2 fold change was inactive: -0.049.

Regarding FAM50A (UniProt Q14320), the log2 fold change was inactive: 0.011.

Regarding ERICH1 (UniProt Q86X53), the log2 fold change is inactive: -0.018.

Regarding FAHD2A (UniProt Q96GK7), the log2 fold change was inactive: -0.034.

With FAM210B (UniProt Q96KR6), the log2 fold change was inactive: -0.002.

On to ETF1 (UniProt P62495), for which the log2 fold change was inactive: 0.023.

Regarding EXOSC6 (UniProt Q5RKV6), the log2 fold change was inactive: -0.028.

In the case of EXOC7 (UniProt Q9UPT5), the log2 fold change was inactive: -0.038.

For the origin of these results see the supplement of paper PMC10849652.
